Test results published in PMC7217929.
No constants are given. Whether binding was seen depends on the method and setting. In cells and extracts the contact can be indirect. Some binding calls cover weakened binding; strength is not graded here.

Chains of the proteins cited; added tags and fusions are not shown.
UniProt Q8TD17: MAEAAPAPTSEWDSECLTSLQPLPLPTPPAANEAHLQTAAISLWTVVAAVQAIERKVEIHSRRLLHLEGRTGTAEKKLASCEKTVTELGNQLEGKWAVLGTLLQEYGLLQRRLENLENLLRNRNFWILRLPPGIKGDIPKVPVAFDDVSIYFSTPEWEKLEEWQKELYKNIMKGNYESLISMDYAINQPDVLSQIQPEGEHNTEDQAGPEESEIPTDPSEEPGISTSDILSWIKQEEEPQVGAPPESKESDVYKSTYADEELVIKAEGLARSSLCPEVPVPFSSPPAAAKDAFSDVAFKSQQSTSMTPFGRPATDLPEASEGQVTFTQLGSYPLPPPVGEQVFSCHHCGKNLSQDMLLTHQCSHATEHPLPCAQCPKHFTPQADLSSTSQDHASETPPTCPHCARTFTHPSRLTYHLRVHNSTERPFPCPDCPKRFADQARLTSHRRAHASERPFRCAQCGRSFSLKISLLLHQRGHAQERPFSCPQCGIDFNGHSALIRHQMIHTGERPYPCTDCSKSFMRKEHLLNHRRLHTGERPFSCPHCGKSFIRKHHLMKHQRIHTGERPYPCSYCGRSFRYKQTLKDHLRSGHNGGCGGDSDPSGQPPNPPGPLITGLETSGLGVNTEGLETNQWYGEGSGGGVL
UniProt P84022: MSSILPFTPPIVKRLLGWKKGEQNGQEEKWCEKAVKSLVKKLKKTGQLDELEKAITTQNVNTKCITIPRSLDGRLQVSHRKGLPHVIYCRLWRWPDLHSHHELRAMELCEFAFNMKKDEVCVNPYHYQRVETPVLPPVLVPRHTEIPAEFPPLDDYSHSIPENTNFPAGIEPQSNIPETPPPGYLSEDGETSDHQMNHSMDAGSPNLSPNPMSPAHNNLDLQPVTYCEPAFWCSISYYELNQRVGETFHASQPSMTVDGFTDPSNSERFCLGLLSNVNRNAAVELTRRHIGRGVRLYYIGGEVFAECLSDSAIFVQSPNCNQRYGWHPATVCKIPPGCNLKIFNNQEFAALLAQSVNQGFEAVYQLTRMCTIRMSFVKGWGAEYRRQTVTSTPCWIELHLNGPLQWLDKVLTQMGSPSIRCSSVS

Target: Avi-Tag-ZNF398 (human) (UniProt Q8TD17)
Assay: co-IP; nuclear lysates of H9 expressing Avi-Tag-ZNF398, treated with 25 ng/ml Activin A for 1 h; nuclei treated with micrococcal nuclease at 30 °C for 10 min; IP buffer 50 mM Tris-HCl pH 8.0, 100 mM NaCl; antibodies against SMAD3, Avi-Tag-ZNF398 or IgG overnight at 4 °C, Protein G magnetic beads; blots for endogenous SMAD3 and Avi-Tag-ZNF398

## SMAD3 (from UniProt P84022 1-425)
  binding: binds
